Results are given in words; binding and its absence hold for the method and conditions named. Binding seen in cells or lysates may run through a third protein. Some results given as binding are weak or reduced against the parent protein; the word gives no strength. For part of these data: Tags and fused reporters may be left off the sequences shown.

For one assay, the target named is Flag-PPARγ (UniProt P37231). Briefly: co-IP; HEK293T cells co-transfected with myc-tagged NLRC5 or its mutants and Flag-tagged PPARγ or PPARγ-LBD; lysate after 24-h transfection; co-immunoprecipitation of myc and Flag, immunoblot. (In general: A western blot detects proteins with antibodies after separation by electrophoresis.)
The target of assay [1] is T1, NLR Family CARD Domain Containing 5 (NLRC5), endogenous in human aortic smooth muscle cells (human (endogenous in HASMCs)), Q86WI3.
T1 chain: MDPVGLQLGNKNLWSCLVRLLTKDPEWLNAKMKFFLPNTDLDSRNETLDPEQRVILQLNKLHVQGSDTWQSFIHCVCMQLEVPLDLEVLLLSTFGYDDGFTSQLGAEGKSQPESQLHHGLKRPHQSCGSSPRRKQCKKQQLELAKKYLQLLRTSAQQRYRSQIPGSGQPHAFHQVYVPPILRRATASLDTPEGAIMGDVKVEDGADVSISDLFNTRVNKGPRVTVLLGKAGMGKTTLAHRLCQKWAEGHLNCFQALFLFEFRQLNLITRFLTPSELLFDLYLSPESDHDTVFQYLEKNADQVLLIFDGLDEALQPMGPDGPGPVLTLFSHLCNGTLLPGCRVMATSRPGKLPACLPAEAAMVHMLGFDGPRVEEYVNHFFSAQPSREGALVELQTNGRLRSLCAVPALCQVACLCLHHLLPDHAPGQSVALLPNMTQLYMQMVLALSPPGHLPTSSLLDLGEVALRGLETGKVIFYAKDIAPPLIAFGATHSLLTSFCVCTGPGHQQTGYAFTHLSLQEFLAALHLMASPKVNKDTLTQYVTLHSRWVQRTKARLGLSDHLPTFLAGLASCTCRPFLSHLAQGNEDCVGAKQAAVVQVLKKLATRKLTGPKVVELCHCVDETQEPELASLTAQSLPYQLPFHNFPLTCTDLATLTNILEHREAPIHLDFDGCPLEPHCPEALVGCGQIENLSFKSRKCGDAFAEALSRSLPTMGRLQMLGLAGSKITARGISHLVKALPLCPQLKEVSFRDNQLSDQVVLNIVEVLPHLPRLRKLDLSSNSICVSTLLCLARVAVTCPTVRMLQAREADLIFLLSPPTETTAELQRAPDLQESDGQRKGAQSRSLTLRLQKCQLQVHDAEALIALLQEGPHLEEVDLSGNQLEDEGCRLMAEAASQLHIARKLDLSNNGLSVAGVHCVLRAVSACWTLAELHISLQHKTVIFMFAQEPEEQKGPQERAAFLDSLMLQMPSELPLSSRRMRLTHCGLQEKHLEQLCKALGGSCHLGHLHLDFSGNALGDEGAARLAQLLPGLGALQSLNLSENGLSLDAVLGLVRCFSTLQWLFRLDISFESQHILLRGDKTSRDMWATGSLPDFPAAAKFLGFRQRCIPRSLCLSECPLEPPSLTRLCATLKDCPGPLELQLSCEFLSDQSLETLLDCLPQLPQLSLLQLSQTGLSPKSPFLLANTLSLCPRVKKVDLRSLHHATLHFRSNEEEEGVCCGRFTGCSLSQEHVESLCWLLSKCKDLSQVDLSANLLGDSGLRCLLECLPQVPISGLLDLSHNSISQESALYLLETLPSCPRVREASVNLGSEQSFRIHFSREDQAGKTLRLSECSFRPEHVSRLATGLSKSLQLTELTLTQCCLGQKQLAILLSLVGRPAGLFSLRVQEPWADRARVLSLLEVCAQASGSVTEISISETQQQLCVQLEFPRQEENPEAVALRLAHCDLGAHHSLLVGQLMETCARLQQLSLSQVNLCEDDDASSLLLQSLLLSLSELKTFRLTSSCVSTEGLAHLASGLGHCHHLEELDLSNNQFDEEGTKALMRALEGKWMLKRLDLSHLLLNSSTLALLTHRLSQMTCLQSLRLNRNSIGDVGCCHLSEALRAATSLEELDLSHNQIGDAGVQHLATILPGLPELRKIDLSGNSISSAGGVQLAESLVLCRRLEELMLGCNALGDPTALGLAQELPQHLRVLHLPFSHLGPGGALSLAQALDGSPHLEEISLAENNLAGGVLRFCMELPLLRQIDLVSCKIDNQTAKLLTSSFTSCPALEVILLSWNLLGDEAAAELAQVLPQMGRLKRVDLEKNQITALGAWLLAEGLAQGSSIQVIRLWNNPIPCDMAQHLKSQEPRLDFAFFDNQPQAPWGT
The assay can be described thus: co-IP; endogenous proteins in HASMC lysate; 500 μg lysate with 5 μg primary antibody at 4 °C overnight, protein A/G agarose, immunoblot; cells with or without PDGF-BB (10 ng/ml), pioglitazone (10 nM), siCtr or siNLRC5; anti-IgG as negative control. To be noted: remark: other sources report otherwise.

B1: myc-NLRC5 DD (domain or fragment, UniProt Q86WI3 1-221)
chain: MDPVGLQLGNKNLWSCLVRLLTKDPEWLNAKMKFFLPNTDLDSRNETLDPEQRVILQLNKLHVQGSDTWQSFIHCVCMQLEVPLDLEVLLLSTFGYDDGFTSQLGAEGKSQPESQLHHGLKRPHQSCGSSPRRKQCKKQQLELAKKYLQLLRTSAQQRYRSQIPGSGQPHAFHQVYVPPILRRATASLDTPEGAIMGDVKVEDGADVSISDLFNTRVNKGP
In the case of B1, the binding result with Flag-PPARγ was “no binding”.

B2: PPARγ, endogenous in human aortic smooth muscle cells, P37231 1-505 (protein)
chain: MGETLGDSPIDPESDSFTDTLSANISQEMTMVDTEMPFWPTNFGISSVDLSVMEDHSHSFDIKPFTTVDFSSISTPHYEDIPFTRTDPVVADYKYDLKLQEYQSAIKVEPASPPYYSEKTQLYNKPHEEPSNSLMAIECRVCGDKASGFHYGVHACEGCKGFFRRTIRLKLIYDRCDLNCRIHKKSRNKCQYCRFQKCLAVGMSHNAIRFGRMPQAEKEKLLAEISSDIDQLNPESADLRALAKHLYDSYIKSFPLTKAKARAILTGKTTDKSPFVIYDMNSLMMGEDKIKFKHITPLQEQSKEVAIRIFQGCQFRSVEAVQEITEYAKSIPGFVNLDLNDQVTLLKYGVHEIIYTMLASLMNKDGVLISEGQGFMTREFLKSLRKPFGDFMEPKFEFAVKFNALELDDSDLAIFIAVIILSGDRPGLLNVKPIEDIQDNLLQALELQLKLNHPESSQLFAKLLQKMTDLRQIVTEHVQLLQVIKKTETDMSLHPLLQEIYKDLY
Turning to B2, the binding entry in assay [1] is “binds”.

B3: myc-NLRC5 NACHT (domain or fragment, UniProt Q86WI3 222-539)
chain: RVTVLLGKAGMGKTTLAHRLCQKWAEGHLNCFQALFLFEFRQLNLITRFLTPSELLFDLYLSPESDHDTVFQYLEKNADQVLLIFDGLDEALQPMGPDGPGPVLTLFSHLCNGTLLPGCRVMATSRPGKLPACLPAEAAMVHMLGFDGPRVEEYVNHFFSAQPSREGALVELQTNGRLRSLCAVPALCQVACLCLHHLLPDHAPGQSVALLPNMTQLYMQMVLALSPPGHLPTSSLLDLGEVALRGLETGKVIFYAKDIAPPLIAFGATHSLLTSFCVCTGPGHQQTGYAFTHLSLQEFLAALHLMASPKVNKDTLTQ
In the case of B3, the binding result with Flag-PPARγ is on record as “binds”.

The values above are taken from paper PMC6599027.
